The source of these data is patent US11713435B2, “Aminocarboxylate chelating agents and detergent compositions containing them” (EASTMAN CHEMICAL COMPANY, priority 2018, dated 2023).

This data set is described as follows: Stain removal of liquid laundry cleaning compositions on stained fabric swatches (ASTM D4265). The settings on record: composition of Table 2 with 2.0 wt % chelating agent.

Turning to `CC(CC(=O)[O-])N(CC(=O)[O-])CC(=O)[O-].[Na+].[Na+].[Na+]` (stereo not drawn) [I, trisodium 2,2′-((1-carboxypropan-2-yl)azanediyl)diacetate], the “stain removal index (SRI)” value is recorded as 35.46 (stain: Motor Oil); 5.17 (stain: animal fat/red dye); 31.45 (stain: babyfood); 33.50 (stain: beta-carotene); 81.16 (stain: blood); 11.38 (stain: butter). Besides, the “stain removal index (SRI)” value is, setting by setting: (stain: clay) 23.72; (stain: curry) 19.75; (stain: dessert (chocolate)) 42.46; (stain: grass) 50.49; (stain: make-up) 13.78; (stain: peat) 49.99. Also, the “stain removal index (SRI)” value runs as follows: (stain: red wine) 26.11; (stain: tea) 5.53; (stain: tomato sauce) 24.83.

Regarding `O=C([O-])CN(CC(=O)[O-])CC1CCC(CN(CC(=O)[O-])CC(=O)[O-])CC1.[Na+].[Na+].[Na+].[Na+]` (stereo not drawn) [III, tetrasodium 2,2′,2″,2″-((cyclohexane-1,4-diylbis(methylene))bis(azanetriyl))tetraacetate], the “stain removal index (SRI)” value runs as follows: (stain: Motor Oil) 35.83; (stain: animal fat/red dye) 6.11; (stain: babyfood) 26.30; (stain: beta-carotene) 39.38; (stain: blood) 78.33; (stain: butter) 9.73. The “stain removal index (SRI)” value (stain: clay) is reported as 17.93; the “stain removal index (SRI)” value (stain: curry) is listed as 17.44; the “stain removal index (SRI)” value (stain: dessert (chocolate)) came out at 33.02; the “stain removal index (SRI)” value (stain: grass) is 50.90; the “stain removal index (SRI)” value (stain: make-up) was 11.97; the “stain removal index (SRI)” value (stain: peat) was determined as 50.69. Further, the “stain removal index (SRI)” value is 24.64 (stain: red wine), 3.13 (stain: tea) and 21.67 (stain: tomato sauce).

For the compound `O=C(O)CN(CCN(CC(=O)O)CC(=O)O)CC(=O)O` [EDTA, reference compound], the “stain removal index (SRI)” value (stain: Motor Oil) was 37.43; the “stain removal index (SRI)” value (stain: animal fat/red dye) was determined as 7.49; the “stain removal index (SRI)” value (stain: babyfood) was determined as 28.50; the “stain removal index (SRI)” value (stain: beta-carotene) turned out to be 38.62; the “stain removal index (SRI)” value (stain: blood) is 81.31; the “stain removal index (SRI)” value (stain: butter) came to 12.78. In addition, the “stain removal index (SRI)” value was found to be 18.32 (stain: clay); 21.03 (stain: curry); 44.56 (stain: dessert (chocolate)); 53.50 (stain: grass); 15.09 (stain: make-up); 52.40 (stain: peat). The “stain removal index (SRI)” value is, setting by setting: (stain: red wine) 27.77; (stain: tea) 5.46; (stain: tomato sauce) 18.85.

Consider `O=C([O-])CC(NCC1CCC(CNC(CC(=O)[O-])C(=O)[O-])CC1)C(=O)[O-].[Na+].[Na+].[Na+].[Na+]` (stereo not drawn) [IV, Tetrasodium 2,2′-((cyclohexane-1,4-diylbis(methylene))bis(azanediyl))disuccinic acid], for which the “stain removal index (SRI)” value came out at 35.09 (stain: Motor Oil); 4.66 (stain: animal fat/red dye); 33.07 (stain: babyfood); 39.74 (stain: beta-carotene); 81.76 (stain: blood); 3.73 (stain: butter). In addition, the “stain removal index (SRI)” value is, setting by setting: (stain: clay) 21.51; (stain: curry) 17.19; (stain: dessert (chocolate)) 40.09; (stain: grass) 50.01; (stain: make-up) 11.84; (stain: peat) 51.32. Further, the “stain removal index (SRI)” value is listed as 22.46 (stain: red wine), 3.26 (stain: tea) and 22.23 (stain: tomato sauce).

Turning to `O=C(O)CN(CCN(CC(=O)O)CC(=O)O)CCN(CC(=O)O)CC(=O)O` [DTPA, reference compound], the “stain removal index (SRI)” value by setting is: (stain: Motor Oil) 38.51; (stain: animal fat/red dye) 5.93; (stain: babyfood) 30.70; (stain: beta-carotene) 34.09; (stain: blood) 80.56; (stain: butter) 13.76. Besides, the “stain removal index (SRI)” value runs as follows: (stain: clay) 22.23; (stain: curry) 18.07; (stain: dessert (chocolate)) 41.71; (stain: grass) 49.99; (stain: make-up) 12.79; (stain: peat) 49.81. Further, the “stain removal index (SRI)” value reads like this: (stain: red wine) 27.93; (stain: tea) 4.29; (stain: tomato sauce) 19.00.

Regarding `CC(C)(CNC(CC(=O)[O-])C(=O)[O-])CNC(CC(=O)[O-])C(=O)[O-].[Na+].[Na+].[Na+].[Na+]` (stereo not drawn) [II, tetrasodium 2,2′-((2,2-dimethylpropane-1,3-diyl)bis(azanediyl))disuccinate], the “stain removal index (SRI)” value runs as follows: (stain: Motor Oil) 36.58; (stain: animal fat/red dye) 5.46; (stain: babyfood) 32.26; (stain: beta-carotene) 38.40; (stain: blood) 81.81; (stain: butter) 11.95. For the same compound, the “stain removal index (SRI)” value runs as follows: (stain: clay) 24.22; (stain: curry) 18.43; (stain: dessert (chocolate)) 44.02; (stain: grass) 54.10; (stain: make-up) 14.31; (stain: peat) 53.70. The “stain removal index (SRI)” value was 25.77 (stain: red wine), 4.77 (stain: tea) and 20.90 (stain: tomato sauce).
